According to US8344115B2, “Immunoassay for specific determination of S-adenosylmethionine and analogs thereof in biological samples” (priority 2008, dated 2013):
At least one structure is not confirmed: it was looked up by name or label, or the drawing left a doubt.

How the values were obtained:
Format in all cases: binding
[1] = system: Mouse antiserum (raised against AdaM-BSA); assay: Assay 3: competitive ELISA with mouse antiserum (goat anti-mouse strips, AdaM-HRP conjugate); details: mouse antiserum 1:15,000, background not subtracted
[2] = system: Rabbit antiserum (raised against AdaM-BSA); assay: Assay 1: end point competitive ELISA with rabbit antibody and antibody specificity (goat anti-rabbit strips, AdaM-HRP conjugate); details: rabbit antiserum 1:12,500, duplicate
Protocol: New Zealand White rabbits were used for polyclonal antibody production. Immunization (1 ml total volume) was carried out with subcutaneous injections at multiple sites. Initial injection utilizes 1:1 mixture of complete Freund Adjuvant and AdaM-BSA conjugate solution in PBS upon emulsification. Subsequent injections use incomplete Freund adjuvant. The immunization was on 21 days cycle schedule, the animals were bleed from the ear artery (rabbit sedated) between 7 to 14 days after injection, normally on the 10th day. The blood was then processed to serum via centrifugation to remove red blood cells and clots. Immune response was detected after three booster injections. See FIG. 1 for a typical positive antibody response (indicated by antibody titer determination) wherein NA005 and 006 are animal designation numbers, 0 represents pre-bleed, 1 represents the first bleed after 4 immunizations.
4-1. Assay 1 Assay (End Point) with Rabbit Antibody and Antibody Specificity
• 1. Goat anti-rabbit coated microtiter well strips. • 2. —Rabbit antiserum diluted in incubation buffer (IB: 10 mM phosphate, 150 mM NaCl, 0.2% BSA, 0.1% Tween 20, 0.1% Proclin, pH 7.4) • 3. An IB+Tris (100 mM) buffer, pH 8.5 • 4. Samples: • (a) SAMe toluenesulfonate (tosylate) disulfate at concentration from […] to 1.4×10^−5 M in IB containing BSA 0.5%, and use 0.5% BSA-IB as zero sample. • (b) SAH at concentration from zero and 1.4×10^−8 to 1.4×10^−4 M. • (c) Adenosine at concentration from zero and 5.6×10^−9 M. to 5.6×10^−5 M • (d) Guanosine at concentration from zero and 3.0×10^−9 M to 3.0×10^−5 M • 5. AdaM-HRP conjugate (diluted to HRP concentration @30 μg/mL) in IB. • 6. —HRP substrate: one reagent substrate solution NeA-blue Tetramethylbenzidine Substrate, Clinical Science Products, Inc., Mansfield, Mass. • 7. 1N phosphoric acid Procedure: • 1. —The rabbit antiserum was diluted 1:12,500 in IB and pre-incubated (60 μl/well) in goat-antirabbit coated strips for at least one hour. • 2. Excess antibody was then decanted, washed, and blot dry. • 3. To each well was then added 10 μl of the pH 8.5 IB+Tris buffer followed by 25 μl of samples. The mixture was incubated on a orbital shaker for 25 min. All samples were tested in duplicate except the zero sample, in 6 wells. • 4. Twenty five microliter (25 μl) of AdaM-HRP conjugate solution was then added and incubated for additional 25 min with shaking. • 5. The assay mixture was then decanted, washed, and blot dry. • 6. To each well was added 60 μl/well of HRP substrate and incubate for 15 min. • 7. Stop the substrate development with 120 μl/well of 1N phosphoric acid. • 8. Read OD450 on a Perkin Elmer Lambda (microtiter plate) Reader. Results: (See Table 1 below)

[3] = system: rabbit anti-SAM antibody; assay: Assay 2: competitive ELISA with rabbit antibody, kinetic mode and end point mode (AdaM-HRP conjugate); details: average of replicates
[4] = system: Rabbit antiserum (raised against AdaM-BSA); assay: Assay 4: ELISA using antigen-coated solid phase (AdaM-BSA coated strips, rabbit antiserum, GAR-HRP); details: for % Inhibition: calculated without subtraction of background signal; for OD450: rabbit antiserum 1:16,000, AdaM-BSA coated strips

**Q.** For C[S+](CC[C@H](N)C(=O)O)C[C@H]1O[C@@H](n2cnc3c(N)ncnc32)[C@H](O)[C@@H]1O (stereo partly drawn) [SAM, S-Adenosylmethionine], which “Average OD450” value ([1]; [SAM] 5.0 × 10−5 M) is on record?
**A.** The value was 0.137.

**Q.** And the “Average OD450” value ([1]; [SAM] 5.0 × 10−6 M)?
**A.** The value was 0.376.

**Q.** What about the “Average OD450” value ([1]; [SAM] 5.0 × 10−7 M) of the same compound?
**A.** Its value is 0.574.

**Q.** And the “Average OD450” value ([1]; [SAM] 5.0 × 10−8 M)?
**A.** Its value is 0.642.

**Q.** What about the “Average OD450” value ([1]; [SAM] 5.0 × 10−9 M) of the same compound?
**A.** The value was 0.704.

**Q.** What about the OD450 ([2]; sample concentration 1.4E−6 (M)) of the same compound?
**A.** Its OD450 is 0.192.

**Q.** What about the OD450 ([2]; sample concentration 1.4E−7 (M)) of the same compound?
**A.** Its OD450 is 0.252.

**Q.** And the OD450 ([2]; sample concentration 1.4E−8 (M))?
**A.** The OD450 was 0.304.

**Q.** What about the OD450 ([2]; sample concentration 1.4E−9 (M)) of the same compound?
**A.** Its OD450 is 0.321.

**Q.** And the OD450 ([2]; sample concentration 1.7E−5 (M))?
**A.** The OD450 was 0.153.

**Q.** And the “End Point Mode (OD450)” value ([3]; [SAM] 1.4E−5 M)?
**A.** Its value is 0.1353.

**Q.** And the “Kinetic Mode (slope, ΔOD650/min)” value ([3]; [SAM] 1.4E−5 M)?
**A.** The value was 1.860 ΔOD650/min.

**Q.** What about the “End Point Mode (OD450)” value ([3]; [SAM] 1.4E−6 M) of the same compound?
**A.** Its value is 0.1586.

**Q.** What about the “Kinetic Mode (slope, ΔOD650/min)” value ([3]; [SAM] 1.4E−6 M) of the same compound?
**A.** Its value is 2.395 ΔOD650/min.

**Q.** What about the “End Point Mode (OD450)” value ([3]; [SAM] 1.4E−7 M) of the same compound?
**A.** Its value is 0.2089.

**Q.** And the “Kinetic Mode (slope, ΔOD650/min)” value ([3]; [SAM] 1.4E−7 M)?
**A.** Its value is 3.568 ΔOD650/min.

**Q.** What about the “End Point Mode (OD450)” value ([3]; [SAM] 1.4E−8 M) of the same compound?
**A.** Its value is 0.2252.

**Q.** And the “Kinetic Mode (slope, ΔOD650/min)” value ([3]; [SAM] 1.4E−8 M)?
**A.** The value was 4.015 ΔOD650/min.

**Q.** What about the “End Point Mode (OD450)” value ([3]; [SAM] 1.4E−9 M) of the same compound?
**A.** Its value is 0.2405.

**Q.** What about the “Kinetic Mode (slope, ΔOD650/min)” value ([3]; [SAM] 1.4E−9 M) of the same compound?
**A.** Its value is 4.324 ΔOD650/min.

**Q.** And the “% Inhibition” value ([4]; [SAM] 5.0 × 10^−5 M)?
**A.** The value was 32.0%.

**Q.** And the OD450 ([4]; [SAM] 5.0 × 10^−5 M)?
**A.** Its OD450 is 0.204.

**Q.** And the “% Inhibition” value ([4]; [SAM] 5.0 × 10^−6 M)?
**A.** The value was 36.4%.

**Q.** And the OD450 ([4]; [SAM] 5.0 × 10^−6 M)?
**A.** Its OD450 is 0.233.

**Q.** What about the “% Inhibition” value ([4]; [SAM] 5.0 × 10^−7 M) of the same compound?
**A.** Its value is 53.3%.

**Q.** What about the OD450 ([4]; [SAM] 5.0 × 10^−7 M) of the same compound?
**A.** Its OD450 is 0.340.

**Q.** What about the “% Inhibition” value ([4]; [SAM] 5.0 × 10^−8 M) of the same compound?
**A.** The value was 77.0%.

**Q.** What about the OD450 ([4]; [SAM] 5.0 × 10^−8 M) of the same compound?
**A.** The OD450 was 0.491.

**Q.** And the “% Inhibition” value ([4]; [SAM] 5.0 × 10^−9 M)?
**A.** Its value is 89.9%.

**Q.** What about the OD450 ([4]; [SAM] 5.0 × 10^−9 M) of the same compound?
**A.** Its OD450 is 0.573.
